Values quoted from earlier work, collected in patent publication US6420119B1, “Methods of diagnosing and treating urinary incontinence relating to collagen proteolysis in pelvic supporting tissue” (The Board of Trustees of the Leland Stanford Jr. University, priority 1999, dated 2002).
At least one compound was matched to its structure with a doubt left.

How the values were obtained:
procollagenase = conditions: pregnant guinea pig cervix; cited from earlier work
[1] = tested on: aneurysm growth in rat aorta; conditions: treated rats vs control rats; cited from earlier work

SMILES: C[C@]12CC[C@@H]3c4ccc(O)cc4CC[C@H]3[C@@H]1CCC2=O [estrone]
- procollagenase activity (procollagenase): doubled

SMILES: CNC(=O)[C@H](Cc1ccccc1)NC(=O)[C@H](CC(C)C)[C@H](CSc1cccs1)C(=O)NO [BB-94, Batimastat]
- aneurysmal dilatation [1]: significantly less aneurysmal dilatation
